No constants are given. Whether binding was seen depends on the method and setting. In cells and extracts the contact can be indirect. Some binding calls cover weakened binding; strength is not graded here. For part of these data: Where a sequence is shown, tags or fusion partners need not be part of it. One block for each molecule: values may come before it.
Key:
[1] = target: T1, Pyrroline-5-carboxylate reductase 1 (PYCR1), endogenous (human (endogenous in T24)) (UniProt P32322); experiment: co-IP; endogenous proteins in T24 cell lysate; anti-BHLHE41 or anti-PYCR1 antibody on Protein G-agarose beads, overnight at 4 °C, IP-lysis buffer (Pierce Co-Immunoprecipitation Kit); western blot
T1 sequence: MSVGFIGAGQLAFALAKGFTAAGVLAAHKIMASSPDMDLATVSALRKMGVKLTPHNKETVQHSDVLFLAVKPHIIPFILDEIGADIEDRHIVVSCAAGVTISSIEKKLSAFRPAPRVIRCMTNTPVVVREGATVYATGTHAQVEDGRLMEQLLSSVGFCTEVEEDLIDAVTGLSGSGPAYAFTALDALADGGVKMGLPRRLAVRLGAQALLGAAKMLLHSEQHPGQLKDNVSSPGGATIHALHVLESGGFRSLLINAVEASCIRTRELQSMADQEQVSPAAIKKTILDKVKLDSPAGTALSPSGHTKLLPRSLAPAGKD

By UniProt entry, the sequences of proteins in these tests, tags left out.
UniProt Q9C0J9: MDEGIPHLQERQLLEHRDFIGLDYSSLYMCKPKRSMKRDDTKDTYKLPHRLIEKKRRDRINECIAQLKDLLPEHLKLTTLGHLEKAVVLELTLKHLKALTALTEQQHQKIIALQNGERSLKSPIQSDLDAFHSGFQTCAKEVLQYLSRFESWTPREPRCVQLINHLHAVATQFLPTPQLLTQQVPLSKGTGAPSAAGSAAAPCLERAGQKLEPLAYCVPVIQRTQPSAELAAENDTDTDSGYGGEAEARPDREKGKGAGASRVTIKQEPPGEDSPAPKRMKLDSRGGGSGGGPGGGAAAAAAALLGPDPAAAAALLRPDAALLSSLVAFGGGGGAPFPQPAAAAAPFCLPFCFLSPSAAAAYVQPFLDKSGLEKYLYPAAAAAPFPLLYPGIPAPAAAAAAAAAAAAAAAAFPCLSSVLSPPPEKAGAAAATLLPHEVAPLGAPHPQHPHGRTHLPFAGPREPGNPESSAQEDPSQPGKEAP

[2] = target: Basic helix-loop-helix family member e41 (BHLHE41), endogenous (human (endogenous in T24)) (UniProt Q9C0J9); experiment: as above
Flag-BHLHE41 (human) = Flag-BHLHE41 (human) (UniProt Q9C0J9); experiment: co-IP; 293T cells co-transfected with Flag-BHLHE41 and HA-PYCR1; immunoprecipitation with anti-Flag on Protein G-agarose beads, overnight at 4 °C, IP-lysis buffer; western blot

binding [1]: binds
Molecule: Basic helix-loop-helix family member e41 (BHLHE41), endogenous (from UniProt Q9C0J9 1-482)

binding [2]: binds
B1: Pyrroline-5-carboxylate reductase 1 (PYCR1), endogenous (protein, UniProt P32322 1-319)
chain: MSVGFIGAGQLAFALAKGFTAAGVLAAHKIMASSPDMDLATVSALRKMGVKLTPHNKETVQHSDVLFLAVKPHIIPFILDEIGADIEDRHIVVSCAAGVTISSIEKKLSAFRPAPRVIRCMTNTPVVVREGATVYATGTHAQVEDGRLMEQLLSSVGFCTEVEEDLIDAVTGLSGSGPAYAFTALDALADGGVKMGLPRRLAVRLGAQALLGAAKMLLHSEQHPGQLKDNVSSPGGATIHALHVLESGGFRSLLINAVEASCIRTRELQSMADQEQVSPAAIKKTILDKVKLDSPAGTALSPSGHTKLLPRSLAPAGKD

binding (Flag-BHLHE41 (human)): binds
B2: HA-PYCR1 (protein, UniProt P32322 1-319)
chain: MSVGFIGAGQLAFALAKGFTAAGVLAAHKIMASSPDMDLATVSALRKMGVKLTPHNKETVQHSDVLFLAVKPHIIPFILDEIGADIEDRHIVVSCAAGVTISSIEKKLSAFRPAPRVIRCMTNTPVVVREGATVYATGTHAQVEDGRLMEQLLSSVGFCTEVEEDLIDAVTGLSGSGPAYAFTALDALADGGVKMGLPRRLAVRLGAQALLGAAKMLLHSEQHPGQLKDNVSSPGGATIHALHVLESGGFRSLLINAVEASCIRTRELQSMADQEQVSPAAIKKTILDKVKLDSPAGTALSPSGHTKLLPRSLAPAGKD

From paper PMC11134742
